Data as given in PubChem BioAssay AID686943 (Drosophila RNAi Screening Center, 2013).

Purpose: 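Search across the genome for regulators of signalling from receptor tyrosine kinase to ERK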 (primary screen)
Cell system: Drosophila S2R+ haemocyte-like cells expressing YFP-tagged ERK (Rolled)
Reagents: long dsRNA against Drosophila genes
Challenge: insulin stimulation versus unstimulated cells; dose and duration not given
Measurement: 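Antibody staining for doubly phosphorylated ERK divided by ERK-YFP signal, as plate z-scores, in insulin-treated and untreated cells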
Scale: replicate 1, z-score of dpERK with insulin and replicate 2, z-score of dpERK with insulin: higher = more active ERK per ERK-YFP after insulin
The deposit covers about 23,000 reagents; shown is an unselected part of those with a known target gene and a result. 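Extra replicates exist only for a retested subset of genes; insulin dose and duration not given; both raised and lowered dpERK matter.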 Names joined by + are all predicted targets of the reagent. Not all columns of the deposit are shown. No sequences are given here. Not stated in the record: the amount of reagent, the time to read-out.

hop (hopscotch) [DRSC20340]: replicate 1, z-score of dpERK with insulin = 0.72; replicate 2, z-score of dpERK with insulin = 0.2
CG34302 [DRSC12751]: replicate 1, z-score of dpERK with insulin = -0.37; replicate 2, z-score of dpERK with insulin = -0.38
Panx (Panoramix) [DRSC04563]: replicate 1, z-score of dpERK with insulin = 1.52; replicate 2, z-score of dpERK with insulin = 0.66
Ice1 (Interacts with the C terminus of ELL 1) [DRSC04191]: replicate 1, z-score of dpERK with insulin = 1.11; replicate 2, z-score of dpERK with insulin = 1.78
CG42354 + CG42353 [DRSC20172]: replicate 1, z-score of dpERK with insulin = -1.52; replicate 2, z-score of dpERK with insulin = -1.3
CG31099 [DRSC14252]: replicate 1, z-score of dpERK with insulin = -0.27; replicate 2, z-score of dpERK with insulin = -0.09
CG13868 [DRSC06427]: replicate 1, z-score of dpERK with insulin = 0.13; replicate 2, z-score of dpERK with insulin = -0.22
Sumo (Small ubiquitin like modifier) [DRSC03611]: replicate 1, z-score of dpERK with insulin = 1.41; replicate 2, z-score of dpERK with insulin = 2.98
Ir62a (Ionotropic receptor 62a) [DRSC08250]: replicate 1, z-score of dpERK with insulin = -0.17; replicate 2, z-score of dpERK with insulin = -0.58
AsnRS (Asparaginyl-tRNA synthetase) [DRSC01990]: replicate 1, z-score of dpERK with insulin = -0.52; replicate 2, z-score of dpERK with insulin = -1.19
CG12035 [DRSC08238]: replicate 1, z-score of dpERK with insulin = -0.2; replicate 2, z-score of dpERK with insulin = -0.59
Arpc5 (Actin-related protein 2/3 complex, subunit 5) [DRSC00730]: replicate 1, z-score of dpERK with insulin = -0.34; replicate 2, z-score of dpERK with insulin = -0.62
RnrS (Ribonucleoside diphosphate reductase small subunit) [DRSC07533]: replicate 1, z-score of dpERK with insulin = -4.55; replicate 2, z-score of dpERK with insulin = -1.72
CG4842 [DRSC10453]: replicate 1, z-score of dpERK with insulin = -0.26; replicate 2, z-score of dpERK with insulin = -0.89
CG3698 [DRSC11749]: replicate 1, z-score of dpERK with insulin = -0.56; replicate 2, z-score of dpERK with insulin = -0.84
CG4282 [DRSC06865]: replicate 1, z-score of dpERK with insulin = 0.54; replicate 2, z-score of dpERK with insulin = 0.84
RPA3 (Replication protein A3) [DRSC19658]: replicate 1, z-score of dpERK with insulin = -0.24; replicate 2, z-score of dpERK with insulin = -0.19
cnn (centrosomin) [DRSC05422]: replicate 1, z-score of dpERK with insulin = 0.1; replicate 2, z-score of dpERK with insulin = -0.22
cnn (centrosomin) [DRSC07596]: replicate 1, z-score of dpERK with insulin = 0.82; replicate 2, z-score of dpERK with insulin = -0.06
CG6678 [DRSC16092]: replicate 1, z-score of dpERK with insulin = -1.04; replicate 2, z-score of dpERK with insulin = -0.7
CG9016 [DRSC03127]: replicate 1, z-score of dpERK with insulin = 0.06; replicate 2, z-score of dpERK with insulin = -0.68
Tcs4 (Threonyl-carbamoyl synthesis 4) [DRSC19587]: replicate 1, z-score of dpERK with insulin = 0.08; replicate 2, z-score of dpERK with insulin = -0.21
CG32269 + CG32270 [DRSC08195]: replicate 1, z-score of dpERK with insulin = 0.09; replicate 2, z-score of dpERK with insulin = 0.08
CG15153 [DRSC02454]: replicate 1, z-score of dpERK with insulin = 0.05; replicate 2, z-score of dpERK with insulin = 0.15
Ccp84Ab [DRSC12587]: replicate 1, z-score of dpERK with insulin = -0.47; replicate 2, z-score of dpERK with insulin = -0.64
Cpr64Aa (Cuticular protein 64Aa) [DRSC08460]: replicate 1, z-score of dpERK with insulin = -0.37; replicate 2, z-score of dpERK with insulin = -0.48
CG14418 [DRSC18637]: replicate 1, z-score of dpERK with insulin = -1.03; replicate 2, z-score of dpERK with insulin = -0.35
Pka-R2 (Protein kinase, cAMP-dependent, regulatory subunit type 2) [DRSC07509]: replicate 1, z-score of dpERK with insulin = 0.5; replicate 2, z-score of dpERK with insulin = 0.63
cag [DRSC07587]: replicate 1, z-score of dpERK with insulin = -0.28; replicate 2, z-score of dpERK with insulin = 0.4
CG42579 [DRSC20391]: replicate 1, z-score of dpERK with insulin = -0.66; replicate 2, z-score of dpERK with insulin = -0.41
tko (technical knockout) [DRSC18844]: replicate 1, z-score of dpERK with insulin = -0.5; replicate 2, z-score of dpERK with insulin = -1.29
